Test results published in article PMC7253352.
These are yes or no findings as the source states them, for the method shown. Binding seen in cells or lysates may run through a third protein. Some results given as binding are weak or reduced against the parent protein; the word gives no strength. For some assays here: Tags and fused reporters may be left off the sequences shown.

T1: SFPQ, endogenous (MDAH) (human (endogenous in MDAH-2774)) (UniProt P23246)
T1 sequence: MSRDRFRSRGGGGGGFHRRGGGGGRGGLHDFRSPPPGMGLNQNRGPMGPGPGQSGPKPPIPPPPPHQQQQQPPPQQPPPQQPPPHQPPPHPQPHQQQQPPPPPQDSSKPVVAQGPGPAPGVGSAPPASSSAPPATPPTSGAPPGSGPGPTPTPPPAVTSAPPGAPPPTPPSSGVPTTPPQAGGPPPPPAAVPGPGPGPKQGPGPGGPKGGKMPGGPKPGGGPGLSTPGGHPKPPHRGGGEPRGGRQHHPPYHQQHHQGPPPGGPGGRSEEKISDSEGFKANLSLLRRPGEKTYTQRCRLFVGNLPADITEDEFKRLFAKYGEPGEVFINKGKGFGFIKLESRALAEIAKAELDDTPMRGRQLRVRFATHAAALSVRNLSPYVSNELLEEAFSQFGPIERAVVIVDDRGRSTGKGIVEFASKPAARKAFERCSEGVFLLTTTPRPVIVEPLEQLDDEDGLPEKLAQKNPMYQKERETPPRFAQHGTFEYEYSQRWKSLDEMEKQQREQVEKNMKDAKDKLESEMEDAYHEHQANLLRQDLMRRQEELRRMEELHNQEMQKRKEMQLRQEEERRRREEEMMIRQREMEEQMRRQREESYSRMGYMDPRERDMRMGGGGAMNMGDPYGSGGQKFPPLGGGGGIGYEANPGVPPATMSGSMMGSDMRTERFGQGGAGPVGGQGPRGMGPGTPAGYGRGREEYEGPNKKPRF

T2: SRSF2, endogenous (HeLa) (human (endogenous in HeLa)) (UniProt Q01130)
T2 sequence: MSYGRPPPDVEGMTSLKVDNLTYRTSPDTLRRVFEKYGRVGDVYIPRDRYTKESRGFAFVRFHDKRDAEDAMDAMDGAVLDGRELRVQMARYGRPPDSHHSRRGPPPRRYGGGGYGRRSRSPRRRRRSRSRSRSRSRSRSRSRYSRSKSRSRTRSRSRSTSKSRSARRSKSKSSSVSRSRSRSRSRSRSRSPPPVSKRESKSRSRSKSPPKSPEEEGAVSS


Tests used:
[1] = molecular target: T1, SFPQ, endogenous (MDAH) (human (endogenous in MDAH-2774)); experiment: co-IP; MDAH cells stably transduced with sh-ctrl or sh-p54nrb, transiently transfected with GFP-SRSF2, CDDP 50 µM for 3 h; IP with anti-SFPQ antibody on nuclear extracts
[2] = molecular target: T2, SRSF2, endogenous (HeLa) (human (endogenous in HeLa)); experiment: co-IP; endogenous proteins, nuclear fraction of HeLa cells, untreated or CDDP 50 µM for 3 and 6 h; lysates IP with anti-SRSF2 antibody

| binding [1] | binding [2] | Binder |
| --- | --- | --- |
| binds |  | GFP-SRSF2 (in MDAH cells) (protein, UniProt Q01130 1-221) MSYGRPPPDVEGMTSLKVDNLTYRTSPDTLRRVFEKYGRVGDVYIPRDRYTKESRGFAFVRFHDKRDAEDAMDAMDGAVLDGRELRVQMARYGRPPDSHHSRRGPPPRRYGGGGYGRRSRSPRRRRRSRSRSRSRSRSRSRSRYSRSKSRSRTRSRSRSTSKSRSARRSKSKSSSVSRSRSRSRSRSRSRSPPPVSKRESKSRSRSKSPPKSPEEEGAVSS |
|  | binds | p54^nrb, endogenous (HeLa) (protein, UniProt Q15233 1-471) MQSNKTFNLEKQNHTPRKHHQHHHQQQHHQQQQQQPPPPPIPANGQQASSQNEGLTIDLKNFRKPGEKTFTQRSRLFVGNLPPDITEEEMRKLFEKYGKAGEVFIHKDKGFGFIRLETRTLAEIAKVELDNMPLRGKQLRVRFACHSASLTVRNLPQYVSNELLEEAFSVFGQVERAVVIVDDRGRPSGKGIVEFSGKPAARKALDRCSEGSFLLTTFPRPVTVEPMDQLDDEEGLPEKLVIKNQQFHKEREQPPRFAQPGSFEYEYAMRWKALIEMEKQQQDQVDRNIKEAREKLEMEMEAARHEHQVMLMRQDLMRRQEELRRMEELHNQEVQKRKQLELRQEEERRRREEEMRRQQEEMMRRQQEGFKGTFPDAREQEIRMGQMAMGGAMGINNRGAMPPAPVPAGTPAPPGPATMMPDGTLGLTPPTTERFGQAATMEGIGAIGGTPPAFNRAAPGAEFAPNKRRRY |
